Measured values as given in PubChem BioAssay AID2517 (National Center for Advancing Translational Sciences (NCATS), 2010).
Several values for one entry are separate records, joined by “and”; a condition that tells them apart may be missing. Identical values can stand only once. Screen size: about 350,000 compounds; about 1,200 (0.34%) were called active. The shares of active, inactive and inconclusive entries below differ from those in the screen. The call rests on the fitted dose curve; in most records, active means well fitted inhibition curve with a large enough effect; inconclusive means small, poorly fitted or top-dose-only effect; inactive means no such curve, though single readings can be large or run the other way. A potency beside an inconclusive call is a rough fit, not a confirmed value.

Sequences of proteins named here, by UniProt entry; tags and fusion partners are left off.
UniProt P27695, whole entry, looked up: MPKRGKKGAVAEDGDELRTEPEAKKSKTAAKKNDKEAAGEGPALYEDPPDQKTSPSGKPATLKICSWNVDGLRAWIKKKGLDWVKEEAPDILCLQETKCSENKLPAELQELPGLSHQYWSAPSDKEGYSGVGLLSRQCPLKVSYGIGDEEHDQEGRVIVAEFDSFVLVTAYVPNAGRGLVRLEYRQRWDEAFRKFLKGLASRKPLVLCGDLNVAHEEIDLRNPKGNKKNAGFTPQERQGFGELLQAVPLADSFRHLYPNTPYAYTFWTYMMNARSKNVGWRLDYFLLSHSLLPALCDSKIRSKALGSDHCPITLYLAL

What follows are compounds tested against DNA repair nuclease/redox regulator APEX1 (Homo sapiens) (UniProt P27695) (assay: qHTS Assay for Inhibitors of the Human Apurinic/apyrimidinic Endonuclease 1 (APE1)). Conditions: recombinant APE1, TAMRA/BHQ-2 abasic DNA cleavage fluorescence; series mostly up to 65.8 µM.
From the text: The apurinic/apyrimidinic endonuclease APE1 is the primary mammalian enzyme responsible for the removal of abasic (or AP) sites in DNA and functions centrally in the base excision DNA repair (BER) pathway. […] Thus, targeting APE1 could improve the efficacy of current treatment paradigms by promoting selective sensitization or protection of diseased and normal cells, respectively.
Inhibition of APE1 activity was screened by utilizing double-stranded short substrate containing tetrahydrofuran (THF) abasic site labeled with rhodamine-type fluorophore (TAMRA) at the 5'-end and with non-fluorescent Black Hole Quencher-2 (BHQ-2) at the opposing 3'-end. An increase in the fluorescence intensity due to incision of the abasic site by APE1 was used to measure the enzyme activity.
NIH Chemical Genomics Center [NCGC]
NIH Molecular Libraries Probe Centers Network [MLPCN]
Assay Provider: David M. Wilson, III, National Institute on Aging, NIH
Three uL of enzyme solution (0.75 nM APE1 final concentration) was dispensed to 1536-well Greiner black solid bottom plates. […] The plates were incubated for 15 min at room temperature, and then 1 uL of substrate solution (50 nM final concentration of TAMRA/BHQ-2) was added to start the reaction. The plates were immediately transferred into ViewLux High-throughput CCD imager (Perkin-Elmer) in order to measure the reaction progress in kinetic mode (three reads every 60 seconds) using 525 nm excitation and 598 nm emission fluorescence protocol. The fluorescence intensity difference between the third and the first time points was used to compute reaction progress. Results were normalized to buffer only columns and NSC13755 positive controls and negative control DMSO treated wells.
Further: nearly all actives have a fitted effect of over 55% in size.
Potency means the concentration at half of the fitted maximal effect.

Compound | Potency
O=C(C(=O)N1CC=C(c2ccccc2)CC1)c1c[nH]c2ccccc12 | inconclusive: 14.1 µM [inhibitor, partial curve, poor fit]
CCN1C(=O)/C(=C\c2ccc([N+](=O)[O-])s2)C(=O)NC1=S | inconclusive: 15.8 µM [inhibitor, partial curve]
CC[C@@]1(O)C(=O)OCc2c1cc1n(c2=O)-c2cc3ccccc3nc2C1 | inconclusive: 28.2 µM [inhibitor, single point]
CC1=NN(c2ccccc2)C(=O)C1/C=C1/C(=O)NC(=O)N(c2cccc(C)c2)C1=O (stereo unspecified) | inactive
CN(C)S(=O)(=O)c1cc(NC(=O)C[N+]23CCN(CC2)CC3)ccc1Cl | inconclusive: 0.0071 µM [inhibitor, full curve, poor fit]
C=C(C)CCl | inactive
Cc1cc(/C=C2/C(=O)NC(=O)N(Cc3ccco3)C2=O)c(C)n1-c1ccccc1O | inactive
CCCCC/C=C\C/C=C\C/C=C\C/C=C\CCCCCC(=O)NCCO | inconclusive: 35.5 µM [inhibitor, single point]
CC(C)c1cccc(O)c(=O)c1 | inactive
CN1CCCC(C(O)(c2ccccc2)c2ccccc2)C1 (stereo unspecified) | inconclusive: 5.01 µM [inhibitor, full curve]
N/C(=N\[N+](=O)[O-])N/N=C/c1ccc(O)cc1 | inactive
C=CCSSCC=C | inconclusive: 12.6 µM [inhibitor, partial curve]
Cc1ccc(/C=C2/C(=O)NC(=O)N(CC3CCCO3)C2=O)s1 (stereo unspecified) | inconclusive: 44.7 µM [inhibitor, single point]
C/C(CC(=O)Nc1cc(C)ccn1)=N\NC(=O)c1ccncc1 | inactive
Clc1ccc(Cl)c(Cl)c1 | inactive
CC1(C)C(=O)CC[C@@]2(C)C1=CCC1C2CC[C@]2(C)C(=O)CCC12 (stereo partly specified) | inactive
C=CCc1cc(C=C2C(=O)N(C)C(=O)N(C)C2=O)cc(OCC)c1OCc1ccccc1 | inconclusive: 35.5 µM [inhibitor, single point]
Nc1ccccc1-c1ccccc1 | inactive
O=c1[nH]c(=O)n(Cc2ccco2)c(O)c1/C=N/N1CCCCC1 | inconclusive: 8.91 µM [inhibitor, single point]
ClCC(Br)CBr (stereo unspecified) | inconclusive: 35.5 µM [inhibitor, partial curve]
O=C(O)c1cccc(N=Nc2c(O)[nH]c(=O)[nH]c2=O)c1 | inconclusive: 3.16 µM [inhibitor, single point]
CCC(=O)Nc1cc(C(=O)O)ccc1S(=O)(=O)c1ccc(C)cc1 | inconclusive: 22.4 µM [inhibitor, partial curve]
O=C(COC(=O)c1cccc(O)c1)Nc1ccc(Cl)cc1C(=O)c1ccccc1 | inconclusive: 0.0224 µM [inhibitor, full curve, poor fit]
CC1CN(c2ccc([N+](=O)[O-])cc2Cl)CCN1 (stereo unspecified) | inconclusive: 1 µM [inhibitor, full curve, poor fit]

Compound | Potency
Cc1cc(/C=C2\C(=O)NC(=O)N(Cc3ccccc3Cl)C2=O)c(C)n1-c1ccc(C(=O)O)cc1 | active: 11.2 µM
CCC(=Nc1ccc(OC)cc1OC)c1c(O)n(C2CCCCC2)c(=O)[nH]c1=O | inconclusive: 35.5 µM [inhibitor, partial curve, poor fit]
COc1cc2c(c(OC)c1OC)-c1ccc(OC)c(=O)cc1[C@H](NC(C)=O)CC2 | inactive
CC1(C)NCCN2C(=O)CSC21 (stereo unspecified) | inconclusive: 0.631 µM [inhibitor, single point]
COC(=O)C1=Nc2ccccc2/C1=C\c1c(O)n(-c2cc(OC)ccc2OC)c(=O)[nH]c1=O | inconclusive: 31.6 µM [inhibitor, single point]
CC(C)CN(CC(C)C)c1ccc(C=C2C(=O)NC(=S)NC2=O)cc1[N+](=O)[O-] | inactive
C[C@]12CCC3C(CC[C@H]4C[C@@H](O)CC[C@]34C)C1CC[C@@H]2OC(=O)[C@H](N)CCCCN (stereo partly specified) | inactive
O=[N+]([O-])C(Br)Br | inactive
Cc1cc(/C=C2\C(=O)NC(=O)N(Cc3ccccc3)C2=O)c(C)n1-c1ccc(Cl)c(C(=O)O)c1 | inconclusive: 22.4 µM [inhibitor, partial curve]
N#CCc1ccccc1 | inactive
CN1C[C@H](C(=O)N[C@]2(C)O[C@@]3(O)[C@@H]4CCCN4C(=O)[C@H](Cc4ccccc4)N3C2=O)C=C2c3cccc4[nH]cc(c34)C[C@H]21 | inconclusive: 6.31 µM [inhibitor, full curve]
O=C1CCc2cccc3c2N1CC3 | inconclusive: 28.2 µM [inhibitor, single point]
CC(=O)OC1CC2C(C)(C)C(O)C=C[C@@]2(C)C2CC[C@]3(C)C(=CC(=O)OC3c3ccoc3)[C@]12C (stereo partly specified) | inactive
CCCCn1c(O)c(/C=N/NC(=O)c2ccncc2)c(=O)[nH]c1=O | inactive
COc1cc2c(cc1O)C[C@H]1NCCc3cc4c(c-2c31)OCO4 | inconclusive: 15.8 µM [inhibitor, partial curve]
Cc1ccccc1N1C(=O)NC(=O)/C(=C/c2ccc(N3CCOCC3)o2)C1=O | inconclusive: 0.199 µM [inhibitor, full curve, poor fit]
CC(=O)NCC(=O)Nc1ccc(Br)cc1C(=O)c1ccccc1 | inactive
O=C(Cl)c1ccccc1F | inactive
Cc1ccc(-n2c(O)c(C=Nc3ccc(S(N)(=O)=O)cc3)c(=O)[nH]c2=O)cc1 | inconclusive: 3.55 µM [inhibitor, single point]
CCC(=NCc1ccco1)c1c(O)n(C2CCCCC2)c(=O)[nH]c1=O | inconclusive: 44.7 µM [inhibitor, single point]
COC(=O)COc1ccc(/C=C2\C(=O)NC(=S)N(c3ccc(C)cc3)C2=O)cc1OC | inactive
[O-][Cl+]O | inactive
O=C(C[N+]12CCC(CC1)C(CO)C2)c1ccc([N+](=O)[O-])cc1 (stereo unspecified) | inconclusive: 4.47 µM [inhibitor, single point]
Cc1cccc(N2C(=O)/C(=C/c3ccc(CN(CCC#N)S(C)(=O)=O)o3)C(=O)NC2=S)c1 | inconclusive: 28.2 µM [inhibitor, single point]

Compound | Potency
CN1CCN(c2ncc3ncc(=O)n(C)c3n2)CC1 | inconclusive: 0.0126 µM [inhibitor, full curve]
O=C1C=CC(=O)C(Cl)=C1 | active: 28.2 µM
C/C=C1/CN2CC[C@]34C(=C(C=O)[C@@H]1C[C@H]23)Nc1c(O)cccc14 | inactive
CCN(CC)C(=O)N[C@@H]1C=C2c3cccc4[nH]cc(c34)C[C@@H]2N(C)C1 | inconclusive: 7.94 µM [inhibitor, partial curve, poor fit]
O=c1[nH]sc2cc(F)ccc12 | inactive
CC(C)C[C@H]1C(=O)N2CCCC2[C@]2(O)O[C@](NC(=O)[C@@H]3C=C4c5cccc6[nH]cc(c56)CC4N(C)C3)(C(C)C)C(=O)N12 (stereo partly specified) | inconclusive: 17.8 µM [inhibitor, partial curve] and inconclusive: 10 µM [inhibitor, full curve]
Cc1ccc2c(Cl)cc(Cl)c(OCC(=O)N(C(C)C)C(C)C)c2n1 | inconclusive: 28.2 µM [inhibitor, single point]
Cc1ccc(N)c(C(=O)c2ccc(Br)cc2)c1 | inconclusive: 39.8 µM [inhibitor, single point]
CC1COC2=C1C(=O)C(=O)c1c2ccc2c1CCCC2(C)C (stereo unspecified) | inconclusive: 39.8 µM [inhibitor, single point]
CC1(C)CN=C(Nc2ccccc2C(F)(F)F)S1 | inactive
N#CC(C#N)=NNc1ccc(S(N)(=O)=O)cc1 | inconclusive: 39.8 µM [inhibitor, single point]
O=C1NC(=O)N(Cc2ccccc2)C(=O)/C1=C/c1cnc(-c2ccccc2)nc1 | inactive
Cc1ccc(C(c2nnnn2Cc2ccccc2)N2CC=C(c3ccc(F)cc3)CC2)cc1 (stereo unspecified) | inconclusive: 39.8 µM [inhibitor, partial curve, poor fit]
Cc1oc(-c2ccccc2)nc1CN1C(=O)C(C)N=C(c2ccccc2F)c2cc(Cl)ccc21 (stereo unspecified) | inconclusive: 3.98 µM [inhibitor, single point]
Cc1cc(C)cc(N2C(=O)NC(=O)/C(=C/c3cccn3-c3ccc(Cl)cc3)C2=O)c1 | inconclusive: 4.47 µM [inhibitor, single point]
O=C1NC(=O)C(=Cc2ccc(-c3ccc(S(=O)(=O)N4CCOCC4)cc3)o2)C(=O)N1 | inactive
N#CC(C#N)=Cc1ccc(O)c(O)c1 | inconclusive: 10 µM [inhibitor, full curve]
CC(C)[C@H]1C(=O)N2CCC[C@H]2[C@]2(O)O[C@](NC(=O)[C@@H]3C=C4c5cccc6[nH]cc(c56)C[C@H]4N(C)C3)(C(C)C)C(=O)N12 | inconclusive: 2.51 µM [inhibitor, full curve, poor fit]
CCCCCCC(=O)N/N=C/c1c(O)n(CCc2ccccc2)c(=O)[nH]c1=O | inactive
Fc1ccc(C(OCCN2CCN(C/C=C\c3ccccc3)CC2)c2ccc(F)cc2)cc1 | inconclusive: 44.7 µM [inhibitor, single point]
CCCCC/C=C\C/C=C\C/C=C\C/C=C\CCCC(=O)NCCCl | inconclusive: 31.6 µM [inhibitor, partial curve]
COc1ccc(CN2C(=O)NC(=O)/C(=C\c3cc(OC)c(OC)c(OC)c3)C2=O)cc1 | inactive
COc1cc2c(cc1OC)-c1c3c(cc4c1[C@@H](C2)N(C)CC4)OCO3 | inactive
